PubChem BioAssay AID602196 – INSERM – 2012

Test: 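Genes whose knock-down alters cisplatin killing of lung cancer cells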
Cell system: human A549 lung cancer cells
Reagents: siRNA pair against human genes
Duration: 48 h transfection before cisplatin; time from cisplatin to read-out not stated
Challenge: cisplatin at a dose killing half of control-siRNA cells; exact dose and duration not given
Measured: 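Shift in cisplatin death relative to control siRNA, from -50 (all cells die) to +50 (no cells die); siRNAs harmful on their own scored 0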
Reading the numbers: two-siRNA summed score (-2 to +2): higher = both siRNAs protect from cisplatin killing; -2 means both sensitise; mean protection from cisplatin (shift in death) and protection from cisplatin (shift in death), siRNA C and protection from cisplatin (shift in death), siRNA D: higher = protection from cisplatin killing
Hit rule: 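Each siRNA scores 0 if harmful alone by LDH or WST-1, otherwise +1 if it reduces and -1 if it increases cisplatin killing; a gene is active when both siRNAs agree (sum +2 or -2)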
Calls: active = both siRNAs shift cisplatin killing the same way; inactive = no consistent shift, or siRNA harmful alone
Shown is a random part of about 23,000 deposited reagents. 455 of all reagents (2%) were called active. 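Active includes both protection and sensitisation; some change values fall well beyond the stated -50 to +50 range.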 Reagents against one gene are numbered here. Reagent sequences are not shown. Not stated in the record: the amount of reagent.

gene	reagent	two-siRNA summed score (-2 to +2)	mean protection from cisplatin (shift in death) (%)	protection from cisplatin (shift in death), siRNA C (%)	protection from cisplatin (shift in death), siRNA D (%)	outcome
NDUFB11 (GeneID 54539)	1	0	0.9	-2.9	4.7	inactive
UFM1 (GeneID 51569)	1	0	2.3	5.2	-0.5	inactive
WDR25 (GeneID 79446)	1	0	2.2	4.5	0	inactive
FANCB (GeneID 2187)	1	0	8.2	5	11.4	inactive
FANCB (GeneID 2187)	2	1	5.9	12.7	-1	inactive
COQ8A (GeneID 56997)	1	0	7.8	10.6	4.9	inactive
STX17 (GeneID 55014)	1	0	-10.4	1.1	-21.9	inactive
SPZ1 (GeneID 84654)	1	0	6.7	2.3	11.1	inactive
CADM3 (GeneID 57863)	1	0	3.7	8.2	-0.9	inactive
C21orf91 (GeneID 54149)	1	0	-7.4	-9.5	-5.4	inactive
KRTAP3-1 (GeneID 83896)	1	0	9.4	6.6	12.1	inactive
CLEC4A (GeneID 50856)	1	0	-10.1	-8.7	-11.5	inactive
ENO3 (GeneID 2027)	1	1	8	16.8	-0.8	inactive
LOC132203	1	0	8.4	8.7	8.2	inactive
LOC284387	1	0	12.3	29.5	-4.8	inactive
C10orf143 (GeneID 387723)	1	0	3.5	-1.1	8.1	inactive
CLIP4 (GeneID 79745)	1	0	6.5	14.3	-1.3	inactive
GPR37L1 (GeneID 9283)	1	0	-1.1	-0.5	-1.8	inactive
PRELID1P6 (GeneID 388955)	1	1	13.8	32.2	-4.7	inactive
LOC442552	1	1	22.9	15.9	29.9	inactive
TMEM67 (GeneID 91147)	1	0	9	12.2	5.7	inactive
MRPS31 (GeneID 10240)	1	-1	-6	-11.7	-0.4	inactive
ETFBKMT (GeneID 254013)	1	0	-5.4	9.9	-20.7	inactive
DNAJB2 (GeneID 3300)	1	0	-5.6	-11.2	0	inactive
VCX3A (GeneID 51481)	1	0	10.4	9.9	10.8	inactive
GPX4 (GeneID 2879)	1	0	12.6	9.8	15.3	inactive
LOC441120	1	0	1	13	-11.1	inactive
LOC441107	1	1	11.8	14	9.7	inactive
PACS2 (GeneID 23241)	1	0	2.8	4	1.6	inactive
LOC440498	1	1	11.3	-7.2	29.9	inactive
FOXB1 (GeneID 27023)	1	0	-7.2	-3.5	-10.9	inactive
SPAAR (GeneID 158376)	1	0	4	-4.6	12.6	inactive
SLC2A5 (GeneID 6518)	1	-1	-21.9	-32.2	-11.5	inactive
WNT9A (GeneID 7483)	1	1	4.9	11.6	-1.7	inactive
LOC391661	1	1	15.9	16.4	15.3	inactive
MIOS (GeneID 54468)	1	0	3.2	-3.6	10.1	inactive
DYNC1LI2 (GeneID 1783)	1	1	-2.1	10.8	-14.9	inactive
LOC440770	1	1	8.7	10	7.4	inactive
OVGP1 (GeneID 5016)	1	1	11.9	29.6	-5.9	inactive
ZNF572 (GeneID 137209)	1	2	12.1	13	11.1	active
ATRN (GeneID 8455)	1	0	5	13.7	-3.7	inactive
GPHB5 (GeneID 122876)	1	-1	-6.7	-20	6.7	inactive
ITGAE (GeneID 3682)	1	-1	-11.1	-0.3	-22	inactive
GRK3 (GeneID 157)	1	0	15.3	0.4	30.2	inactive
LOC401778	1	1	10.9	11.5	10.3	inactive
PLA2G4D (GeneID 283748)	1	0	7.9	12.3	3.5	inactive
RPLP1 (GeneID 6176)	1	0	20.5	26.7	14.2	inactive
PRSS30P (GeneID 124221)	1	0	-1.4	-6.2	3.3	inactive
LOC400790	1	0	4	6.6	1.4	inactive
PAFAH1B2 (GeneID 5049)	1	1	10	3.5	16.6	inactive
PLCB2 (GeneID 5330)	1	0	10.4	4.7	16	inactive
OR5A1 (GeneID 219982)	1	0	-5.2	-24.5	14.2	inactive
EDC3 (GeneID 80153)	1	0	-2	-7.6	3.5	inactive
BMP15 (GeneID 9210)	1	-1	-8.9	-19.3	1.5	inactive
KLHL36 (GeneID 79786)	1	0	9.9	17.4	2.4	inactive
ZNF556 (GeneID 80032)	1	0	0.6	3.9	-2.8	inactive
YY2 (GeneID 404281)	1	1	11.6	16.3	6.8	inactive

An excerpt from the list above, for reference:
gene	reagent	two-siRNA summed score (-2 to +2)	mean protection from cisplatin (shift in death) (%)	protection from cisplatin (shift in death), siRNA C (%)	protection from cisplatin (shift in death), siRNA D (%)	outcome
GPX4 (GeneID 2879)	1	0	12.6	9.8	15.3	inactive
LOC441120	1	0	1	13	-11.1	inactive
LOC441107	1	1	11.8	14	9.7	inactive
PACS2 (GeneID 23241)	1	0	2.8	4	1.6	inactive
LOC440498	1	1	11.3	-7.2	29.9	inactive
